Data as given in PubChem BioAssay AID1259425 (University of Nebraska Medical Center, 2018).

Test: 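Compare each knockdown with KSR1 silencing using changes in marker transcripts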 (primary screen)
Cell system: HCT116 human colon cancer cells
Knock-down reagent: siRNA pool against human genes, 50 nM siRNA
Detection: 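mRNA of six signature genes measured together by branched-DNA assay after 50 nM siRNA pool, blank removed, divided by geometric mean of two housekeeping genes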
Direction: BNIP3L mRNA: higher = more BNIP3L transcript after knockdown; NDRG1 mRNA: higher = more NDRG1 transcript after knockdown
This is an unselected part of about 14,000 reagents tested. Further read-outs or replicates are left out here. The record does not give: the time to read-out.

DGKB (diacylglycerol kinase beta) → BNIP3L mRNA, set 1: 0.164; NDRG1 mRNA, set 1: 0.0977
SPEF1 (sperm flagellar and cilia associated 1) → BNIP3L mRNA, set 1: 0.125; NDRG1 mRNA, set 1: 0.168
POU2F2 (POU class 2 homeobox 2) → BNIP3L mRNA, set 1: 0.0802; NDRG1 mRNA, set 1: 0.0694
RPL18 (ribosomal protein L18) → BNIP3L mRNA, set 1: 0.262; NDRG1 mRNA, set 1: 0.283
NEK7 (NIMA related kinase 7) → BNIP3L mRNA, set 1: 0.0501; NDRG1 mRNA, set 1: 0.127
BRD4 (bromodomain containing 4) → BNIP3L mRNA, set 1: 0.166; NDRG1 mRNA, set 1: 0.169
PUS3 (pseudouridine synthase 3) → BNIP3L mRNA, set 1: 0.163; NDRG1 mRNA, set 1: 0.159
SMTN (smoothelin) → BNIP3L mRNA, set 1: 0.103; NDRG1 mRNA, set 1: 0.156
CD5L (CD5 molecule like) → BNIP3L mRNA, set 1: 0.106; NDRG1 mRNA, set 1: 0.135
INO80B (INO80 complex subunit B) → BNIP3L mRNA, set 1: 0.238; NDRG1 mRNA, set 1: 1.19
EHMT2 (euchromatic histone lysine methyltransferase 2) → BNIP3L mRNA, set 1: 0.0346; NDRG1 mRNA, set 1: 0.13
ZNF304 (zinc finger protein 304) → BNIP3L mRNA, set 1: 0.136; NDRG1 mRNA, set 1: 0.477
AKAP5 (A-kinase anchoring protein 5) → BNIP3L mRNA, set 1: 0.139; NDRG1 mRNA, set 1: 0.113
STXBP3 (syntaxin binding protein 3) → BNIP3L mRNA, set 1: 0.149; NDRG1 mRNA, set 1: 0.112
NOSIP (nitric oxide synthase interacting protein) → BNIP3L mRNA, set 1: 0.154; NDRG1 mRNA, set 1: 0.541
GC (GC vitamin D binding protein) → BNIP3L mRNA, set 1: 0.144; NDRG1 mRNA, set 1: 0.149
LINC00525 (long independently transcribed non-coding RNA 525) → BNIP3L mRNA, set 1: 0.19; NDRG1 mRNA, set 1: 0.369
AP4M1 (adaptor related protein complex 4 subunit mu 1) → BNIP3L mRNA, set 1: 0.147; NDRG1 mRNA, set 1: 0.242
CA5A (carbonic anhydrase 5A) → BNIP3L mRNA, set 1: 0.112; NDRG1 mRNA, set 1: 0.262
LYVE1 (lymphatic vessel endothelial hyaluronan receptor 1) → BNIP3L mRNA, set 1: 0.203; NDRG1 mRNA, set 1: 0.197
CGRRF1 (cell growth regulator with ring finger domain 1) → BNIP3L mRNA, set 1: 0.066; NDRG1 mRNA, set 1: 0.077
SWT1 (SWT1 RNA endoribonuclease homolog) → BNIP3L mRNA, set 1: 0.0615; NDRG1 mRNA, set 1: 0.107
POLR2C (RNA polymerase II subunit C) → BNIP3L mRNA, set 1: 0.223; NDRG1 mRNA, set 1: 0.181
HSPD1 (heat shock protein family D (Hsp60) member 1) → BNIP3L mRNA, set 1: 0.125; NDRG1 mRNA, set 1: 0.313
IL18RAP (interleukin 18 receptor accessory protein) → BNIP3L mRNA, set 1: 0.0597; NDRG1 mRNA, set 1: 0.195
PGBD5 (piggyBac transposable element derived 5) → BNIP3L mRNA, set 1: 0.165; NDRG1 mRNA, set 1: 0.198
HTR3A (5-hydroxytryptamine receptor 3A) → BNIP3L mRNA, set 1: 0.122; NDRG1 mRNA, set 1: 0.262
SLC49A3 → BNIP3L mRNA, set 1: 0.222; NDRG1 mRNA, set 1: 0.191

4 entries from above, showing only “BNIP3L mRNA, set 1”.
EHMT2 (euchromatic histone lysine methyltransferase 2) = 0.0346
ZNF304 (zinc finger protein 304) = 0.136
AKAP5 (A-kinase anchoring protein 5) = 0.139
STXBP3 (syntaxin binding protein 3) = 0.149
